According to paper PMC10774353:
Results are given in words; binding and its absence hold for the method and conditions named. Binding seen in cells or lysates may run through a third protein. Here binding means that the protein was enriched with, or labelled near, the bait; the list need not be complete. Where a sequence is shown, tags or fusion partners need not be part of it.

Assays:
[1] = target: T1, FLAG-tagged Rsph16 (mouse) (UniProt Q80Y75); assay: affinity purification with mass spectrometry; eight subunits co-expressed in HEK293F; two-step affinity purification by Strep-Tag II-Rsph1 (Strep-Tactin beads, biotin elution) and then Flag-Rsph16 (anti-FLAG beads, 3xFlag peptide elution); 25 mM HEPES pH 7.5, 200 mM KCl, 0.05% NP-40; mass spectrometry of the purified complex
T1 sequence: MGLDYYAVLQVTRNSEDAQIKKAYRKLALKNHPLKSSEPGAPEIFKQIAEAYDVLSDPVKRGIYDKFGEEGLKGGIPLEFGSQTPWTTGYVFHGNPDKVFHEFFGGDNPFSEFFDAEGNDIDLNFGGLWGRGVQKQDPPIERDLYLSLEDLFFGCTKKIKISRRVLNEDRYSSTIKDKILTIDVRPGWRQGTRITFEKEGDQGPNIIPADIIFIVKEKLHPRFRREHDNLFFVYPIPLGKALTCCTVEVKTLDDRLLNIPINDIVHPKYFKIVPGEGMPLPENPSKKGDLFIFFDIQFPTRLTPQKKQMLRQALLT

[2] = target: T2, Strep-Tag II-tagged Rsph1 (mouse) (UniProt Q8VIG3); assay: as above
T2 sequence: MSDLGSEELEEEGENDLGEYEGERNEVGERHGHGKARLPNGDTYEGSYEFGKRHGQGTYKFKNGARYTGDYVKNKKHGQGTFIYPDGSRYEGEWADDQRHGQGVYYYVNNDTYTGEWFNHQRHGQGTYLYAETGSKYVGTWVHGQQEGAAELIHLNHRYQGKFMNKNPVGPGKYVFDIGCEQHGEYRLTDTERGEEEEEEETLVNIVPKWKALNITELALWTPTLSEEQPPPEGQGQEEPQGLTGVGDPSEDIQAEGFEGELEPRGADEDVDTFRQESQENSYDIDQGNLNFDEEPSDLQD

binding [1]: binds
binding [2]: binds
B1: Rsph10b (protein, UniProt E9PYQ0 1-876)
chain: MVKEKKKADKKGDKSARSPSSISDNPEASKQDSNASKQEVAPSAVVPVVETPLKQAPKRDSVQMEQSEEETQYEEPILTKLIVESYEGEKVRGLYEGEGFAVFQGGNTYHGMFSEGLMHGQGTYIWADGLKYEGDFVKNIPMNHGVYTWPDGSTYEGEVTNGMRNGFGMFKCGTQPVSYIGHWCHGKRHGKGSIYYNQEGTSWYEGDWVYNIKKGWGIRCYKSGNIYEGQWENNMRHGEGRMRWLTTNEEYTGHWEKGIQNGFGTHTWFLKRIPNSQYPLRNEYIGEFVNGFRHGQGKFYYASGAMYEGEWASNKKQGRGRMTFKNGHVYEGLFSNDHIAQFFETEMDYSQSLDRWSDASQRSRQPRGSSVSAVREPETLRKLDGSESRSVLGTSIELDLTLLLDMYPEESQEEEKKQVEYAVLRNITELRRIYCFYSGLGCDHSLDNTFLMTKLHFWRFLKDCRFHHHNITLADMDRVLSVYNGIPIEEIHSPFRTILLRTFLNYLLQLAYYIHHKEFQNRSPSLFLCFTKLMSENIHPHACQVKGHLFSEQQRTLYSMNYIDKCWEIYTAYCRPNEAPPYELTMKMRYFLWMLKDFRMINKDLTATKFMTVIAEDNPFVYDGTDSNFELELVFLEFFEALLCFSLCCMFDQMTRSYLKVPYDDITTNRYGSTQTILNQSIHRSPSAITSHDSEVHFSSTKSSLDKIGALPDGKIRQSEPKLKKSLSEDKVSKMNFKTQGRGLVFMSPQGEKYEKPKDEQKEKLNIWVNNLYVFFVSVLFSAYKREEMLKEKVKENQLQEAELAQQRQIENEELEARLNILREEEARKQDFELDITVLKEPSEIPASQPLTPSPPKEDLASIQTSKASPGKKKKK
